Test results published in patent publication US20200246488A1.
Results are given in words; binding and its absence hold for the method and conditions named. Binding seen in cells or lysates may run through a third protein. These calls come from enrichment with a bait or labelling near it, and not all partners need be listed. Tags and fused reporters may be left off the sequences shown.

By UniProt entry, the sequences of proteins in these tests, tags left out.
UniProt Q9UKB1: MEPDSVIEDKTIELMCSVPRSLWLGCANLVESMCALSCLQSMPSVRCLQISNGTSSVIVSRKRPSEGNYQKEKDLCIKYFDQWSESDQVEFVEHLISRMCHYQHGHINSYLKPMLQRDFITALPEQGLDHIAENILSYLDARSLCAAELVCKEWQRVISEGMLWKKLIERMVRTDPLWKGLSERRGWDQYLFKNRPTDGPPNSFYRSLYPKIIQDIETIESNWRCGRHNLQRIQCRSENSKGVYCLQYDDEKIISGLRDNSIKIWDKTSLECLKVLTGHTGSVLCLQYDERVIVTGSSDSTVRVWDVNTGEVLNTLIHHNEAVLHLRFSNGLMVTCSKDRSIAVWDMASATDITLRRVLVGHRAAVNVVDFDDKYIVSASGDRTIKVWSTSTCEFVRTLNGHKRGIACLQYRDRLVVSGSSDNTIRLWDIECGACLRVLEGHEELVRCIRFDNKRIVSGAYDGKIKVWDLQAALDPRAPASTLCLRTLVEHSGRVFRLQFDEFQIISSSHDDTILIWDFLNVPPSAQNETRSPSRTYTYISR
UniProt Q9Y297: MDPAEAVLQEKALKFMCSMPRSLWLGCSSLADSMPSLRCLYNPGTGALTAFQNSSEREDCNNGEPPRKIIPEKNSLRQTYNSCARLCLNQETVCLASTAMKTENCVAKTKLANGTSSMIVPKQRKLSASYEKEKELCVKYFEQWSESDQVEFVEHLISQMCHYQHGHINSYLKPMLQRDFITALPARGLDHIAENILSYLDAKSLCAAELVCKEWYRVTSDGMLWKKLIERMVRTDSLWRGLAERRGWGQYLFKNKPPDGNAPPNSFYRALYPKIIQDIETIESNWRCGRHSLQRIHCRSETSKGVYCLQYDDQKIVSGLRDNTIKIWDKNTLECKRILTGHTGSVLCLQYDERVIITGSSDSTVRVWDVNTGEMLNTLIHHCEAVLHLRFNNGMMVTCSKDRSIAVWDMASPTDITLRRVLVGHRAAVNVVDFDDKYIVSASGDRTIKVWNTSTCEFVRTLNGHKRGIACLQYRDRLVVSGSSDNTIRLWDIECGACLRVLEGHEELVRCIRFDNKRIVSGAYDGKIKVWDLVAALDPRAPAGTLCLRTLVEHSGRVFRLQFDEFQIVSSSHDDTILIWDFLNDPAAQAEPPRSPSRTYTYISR

Experiments:
[1] = biological target: FBXW11, endogenous (human) (UniProt Q9UKB1); assay: tandem mass spectrometry-based affinity proteomics, FLAG immunoprecipitation from HEK293T cells
[2] = biological target: BTRC1, endogenous (human) (UniProt Q9Y297); assay: as above

binding [1]: binds
binding [2]: binds
B1: FLAG-tagged C1orf106 (WT) (protein, UniProt Q3KP66-3 1-578, looked up, not shown: small tags and cut ends)
chain: MESKDEVSDTDSGIILQSGPDSPVSPMKELTHAVHKQQRALEARLEACLEELRRLCLREAELTGTLPAEYPLKPGEKAPKVRRRIGAAYKLDDWALHREDPLSSLERQLALQLQITEAARRLCLEENLSRQARRQRKHSMLQEEKKLQELQRCLVERRRNSEPPPAAALPLGRELSASDDSSLSDGLLLEEEESQVPKPPPESPAPPSRPLPPQTLEGLQPTGPEAGSPERAPVQNSPWKETSLDHPYEKPRKSSEPWSESSSPATTPQDGPSASSLWLLEPASYHVVPIRGVPGQWQGRTSAPATPEIQGRRGQSQSLRVDSFRAGPEGRGRSAFPRRRPTHYTVTVPDSCFPATKPPLPHAACHSCSEDSGSDVSSISHPTSPGSSSPDISFLQPLSPPKTHRHRGAWVPAGSRELVAHHPKLLLPPGYFPAGRYVVVAESPLPPGEWELRRAAPGPAYEEEGTPLRYQRLVPSRSRIVRTPSLKDSPAGRGLSKAAVSEELKWWHERARLRSTRPHSLDRQGAFRVRSLPLGREGFGRALGPRAQVPTVCVLRRSPDGAPVQVFVPEKGEIISQV
